Source: publication PMC4960799
These are yes or no findings as the source states them, for the method shown. Binding seen in cells or lysates may run through a third protein. Some binding calls cover weakened binding; strength is not graded here.

By UniProt entry, the sequences of proteins in these tests, tags left out.
UniProt P20152: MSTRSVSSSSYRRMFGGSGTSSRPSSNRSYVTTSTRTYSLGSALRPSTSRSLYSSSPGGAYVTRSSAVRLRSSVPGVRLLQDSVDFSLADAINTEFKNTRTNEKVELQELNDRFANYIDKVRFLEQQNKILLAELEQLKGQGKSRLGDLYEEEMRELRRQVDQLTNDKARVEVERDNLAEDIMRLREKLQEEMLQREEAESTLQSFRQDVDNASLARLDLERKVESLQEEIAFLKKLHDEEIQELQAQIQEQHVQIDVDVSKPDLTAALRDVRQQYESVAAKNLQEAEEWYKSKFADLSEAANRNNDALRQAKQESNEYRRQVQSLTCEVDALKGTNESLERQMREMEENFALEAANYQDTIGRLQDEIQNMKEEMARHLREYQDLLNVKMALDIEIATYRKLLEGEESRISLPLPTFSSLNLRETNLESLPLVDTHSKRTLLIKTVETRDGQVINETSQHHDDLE

Target: vimentin (mouse (endogenous in tracheal rings)) (UniProt P20152)
Experiment: co-sedimentation; intermediate filament fractionation: mouse tracheal rings (untreated, okadaic acid 10^-6 M, or control/PP1 shRNA with ACh) homogenised in 1 % Nonidet P-40, 10 % glycerol, 20 mM Hepes pH 7.6, 150 mM NaCl, 37 °C 30 min; insoluble (cytoskeletal) fraction collected at 5,200 rpm, 4 °C, 30 min; equal amounts of cytoskeletal vimentin blotted for p130CAS and vimentin

binding: binds
B1: p130 Crk-associated substrate (protein, UniProt Q61140 1-874)
chain: MTVPNVLAKALYDNVAESPDELSFRKGDIMTVLERDTQGLDGWWLCSLHGRQGIVPGNRLKILVGMYDKKPVGPGPGPPATPPQPQPSLPQGVHAPVPPASQYSPMLPTAYQPQSDNVYLVPTPSKTQQGLYQAPGPNPQFQSPPAKQTSTFSKQTPHHSFPSPATDLYQVPPGPGSPAQDIYQVPPSAGIGHDIYQVPPSLDTRGWEGTKPPAKVVVPTRVGQGYVYEAAQTEQDEYDTPRHLLAPGPQDIYDVPPVRGLLPNQYGQEVYDTPPMAVKGPNGRDPLLDVYDVPPSVEKGLLSSSHHSVYDVPPSVSKDVPDGPLLREETYDVPPAFAKPKPFDPTRHPLILAAPPPDSPAAEDVYDVPPPAPDLYDVPPGLRRPGPGTLYDVPRERVLPPEVADGSVVDDGVYAVPPPAEREAPTDGKRLSASSTGSTRSSQSASSLEVVVPGREPLELEVAVESLARLQQGVSTTVAHLLDLVGSASGPGGWRGTSEPQEPPAQDLKAAVAAVHGAVHELLEFARGAVSNATHTSDRTLHAKLSRQLQKMEDVYQTLVVHGQVLDSGRGSPGFTPEDLDRLVACSRAVPEDAKQLASFLHGNASLLFRRTKAPGPGPEGSSSLHPNPTDKASSIQSRPLPSPPKFTSQDSPDGQYENSEGGWMEDYDYVHLQGKEEFEKTQKELLERGNIMRQGKGQLELQQLKQFERLEQEVSRPIDHDLANWTPAQPLVPGRTGGLGPSDRQLLLFYLEQCEANLTTLTDAVDAFFTAVATNQPPKIFVAHSKFVILSAHKLVFIGDTLSRQAKAADVRSQVTHYSNLLCDLLRGIVATTKAAALQYPSPSAAQDMVDRVKELGHSTQQFRRVLGQLAAA
